The nature of series [1]: Fmoc solid-phase peptide synthesis; Fmoc-RINK-resin; PyBrop for the residue after an N-methylamino acid (SPPS); EDCI/HOBt (solution). The settings on record: whole synthesis, scale 0.84 mmol.
Series [2] can be described thus: Fmoc solid-phase peptide synthesis; Fmoc-Pro-p-alkoxybenzyl-alcohol-resin; PyBrop for the residue after an N-methylamino acid (SPPS); EDCI/HOBt (solution). The settings on record: whole synthesis, scale 3 mmol.

Strings that start with PEPTIDE1 are HELM notation: dots part the residues, brackets hold end groups and non-standard residues.

In series [1], “PEPTIDE1{[Me2Val].V.[MeVal].P.P.V.F.[am]}$$$$V2.0” displayed a crude mass of 590 mg and an isolated mass of 295 mg.
In the case of “PEPTIDE1{[Me2Val].V.[MeVal].P.[NH-CH(Bzl)-thiazol-2-yl]}$$$$V2.0”, the crude mass in series [2] is 750 mg.

The values above are taken from patent US5831002A (BASF Aktiengesellschaft, priority 1995, dated 1998).
